Assay results: PubChem BioAssay AID651558 (National Center for Advancing Translational Sciences (NCATS), 2012)
In all, about 1,200 compounds went through this assay and about 480 (40%) were called active. The shares of active, inactive and inconclusive entries below differ from those in the screen. Calls follow the shape of the dose curve; as a rule, active = well fitted inhibition curve with a large enough effect; inconclusive = small, poorly fitted or top-dose-only effect; inactive = no such curve, though single readings can be large or run the other way. A potency beside an inconclusive call is a rough fit, not a confirmed value.
% is scaled to controls: 0 for no effect and ±100 for the full control effect; potency is read from the fitted curve at half-maximal effect.

Experiment: qHTS Assay to Find Inhibitors of Chronic Active B-Cell Receptor Signaling: Hit Validation in Primary Screen; also: nearly all actives have a fitted effect of over 75% in size
Details: ABC-DLBCL IkB-luc/CBR ratio luminescence, 4 h; series mostly up to 46.1 µM; activity change, negative = inhibition: at the top concentration
Source text: Diffuse large B-cell lymphoma (DLBCL) is the most common category of non-Hodgkin lymphoma, with ~20,000 new cases per year in the United States. DLBCL should be regarded as a collection of different neoplasms. Microarray gene expression analysis has defined two principal types of DLBCL, named for their similarity to normal B cell stages or activation states: a germinal center B-cell (GCB) type, and an activated B-cell (ABC) type. In ABC-DLBCL, a constitutive high-level activity of the NF-kappaB family of transcription factors has been observed (1) and NF-kappaB target genes are more highly expressed in ABC primary tumors than in GCB tumors. Functional studies have shown a constitutive high-level activity of the IkappaB (inhibitor of kappa-B) kinase (IKK) complex. […] Further analysis of DLBCL primary tumors for NF-kappaB target gene expression imply that although CARD11 is required for constitutive IKK activity in all ABC-DLBCL lines, mutations in CARD11 may be the root cause of IKK activation only in lines or tumors with such mutations. In other words, CARD11 mutations may explain NF-kappaB activation in only 10% of ABC-DLBCL cases. […] This process has been termed 'chronic active BCR signaling' (CABS). The goal of this screen is to find small-molecule inhibitors of the CABS pathway found in ABC-DLBCL lines using a cell-based assay that measures IkappaBalpa stability, which has already been extensively validated in the OCI-Ly3 line (PubChem AID:445; REF: 4). […] A cell-sensor assay for I-kappa-B-alpha stabilization has been developed. The assay uses green (CBG68) and red (CBR) emitting beetle luciferases [Chroma-GloTM developed by Promega Corp.] where the green luciferase is fused to IkappaBalpha and the red luciferase is present in its native state. Both luciferase genes are stably present in the TMD8 human ABC DLBCL cell line, but their expression is under the control of tetracycline-inducible promoters. Following the addition of doxycycline to induce expression of the luciferases, the green luminescence in control cultures rises only slowly because the CBG fusion partner IkappaBalpha is targeted by IKK activity for rapid degradation. In contrast, green luminescence rises rapidly in the presence of proteasome inhibitors or IKK inhibitors. The rise in red luminescence of CBR is not affected by proteasome or IKK inhibitors, and serves as normalization for cell number and nonspecific effects. Compounds were screened as a concentration-titration series that ranged from 46 uM to 3 nM. NIH Molecular Libraries Probe Production Network [MLPCN] NIH Chemical Genomics Center [NCGC] MLPCN Grant: R03 DA031086 PI Name: Dr. R. Eric Davis
Cells were seeded in 1536-well plates at 5000 cells/4uL in IMDM medium containing 0.5% FBS, w/o phenol red, 1% penicillin/streptomycin. Then, 23 nL of compounds or DMSO were delivered to each well using a pin tool. One uL 20ng/ml doxycycline was then dispensed into white solid 1536-well plates and the plates were incubated at 37C/5% C02 in a cell incubator for 4 hrs. Then 4 uL luminescent substrate mix (in-house prepared: 150 mM Tris-Cl, pH 7.6, 3 mM MgCl2, 1% Triton X-100, 5 mM DTT, 0.2 mM CoA, 0.15 mM ATP, 5 mM D-luciferin, final concentrations) was added to each well. The plate was incubated at r.t. for 10-15 min. The plates were measured on a ViewLux plate reader for green luminescence (540/20 nm filter) and red luminescence (618/8 nm filter). The green and red luminescent signals were corrected for red and green luminescence filter overlap using previously determined filter calibration constants (determined using the procedure outlined in the Promega Technical Manual; REF 4). The %Activity was determined from the ratio of corrected green/red luminescent values. MG132 were used as control. Green luminescent and ratio %Activity was determined by normalizing to the difference in signal between basal cells (0% Activity) and cells incubated with 10 uM of the proteasome inhibitor MG-132 (100% Activity). […]
With `Cc1noc(C)c1CSc1nc2[nH]ncc2c(=O)n1-c1ccccc1` the Potency was inconclusive: 4.11 µM [inhibitor, full curve].
For `CC[C@]12c3[nH]c4cc(CCC(=O)N(C)C)ccc4c3CCN1C(=O)[C@@H](CC(=O)NCCCN(C)C)C[C@@H]2C(=O)N1CCN(C(=O)c2ccco2)CC1`, the Potency was inconclusive: 2.06 µM [inhibitor, partial curve].
In the case of `CCc1ccc(NC(=O)CSc2nc(=O)n(CCCN3CCOCC3)c3c2CCCC3)cc1`, the “activity change, negative = inhibition” value is reported as inactive: -11.2%.
For `CC(=O)c1c(C)[nH]c(C(=O)OCC(=O)c2c[nH]c3ccccc23)c1C`, the Potency was inconclusive: 18.4 µM [inhibitor, partial curve].
With `O=C(Cc1ccc(-n2c(=O)c3ccccc3n(Cc3ccccc3F)c2=O)cc1)NCC1CCCO1` (stereo not given) the Potency was inconclusive: 4.61 µM [inhibitor, full curve].
For `CCCn1nnc(NC(=S)NC(=O)c2ccc(-c3ccc(Br)cc3)o2)n1`, the “activity change, negative = inhibition” value was inactive: -9.53%.
For `COc1ccc(C(=O)NN(C)c2nc(C(F)(F)F)nc3ccccc23)cc1`, the Potency was active: 0.291 µM.
For `C=CCn1c(SC2CCOC2=O)nc2sc(C)c(C)c2c1=O` (stereo not given), the “activity change, negative = inhibition” value was inactive: -15.6%.
For `Cc1nn(Cc2ccccc2)c2c1C(c1ccccc1)C(C#N)=C(N)O2` (stereo not given), the Potency was inconclusive: 29.1 µM [inhibitor, single point].
For `Cc1ccc(NC(=O)/C=C/c2ccco2)nc1`, the Potency was active: 1.16 µM.
For `Oc1[nH]c2ccc(Br)cc2c1N=NC(=S)N1CCOCC1`, the Potency was inconclusive: 20.6 µM [inhibitor, single point].
With `CCn1c2ccccc2c2cc(NC(=O)c3ccccc3-c3ccccc3C(=O)O)ccc21` the Potency was inconclusive: 23.1 µM [inhibitor, partial curve, poor fit].
In the case of `COc1cc2sc(-c3ccc(S(C)(=O)=O)cc3)c(C#CCO)c2cc1OC`, the Potency is reported as inconclusive: 14.6 µM [inhibitor, partial curve].
With `Nc1ncnc2c1ncn2[C@@H]1O[C@H](CNCc2ccc(-c3cc(C(F)(F)F)ccc3Cl)o2)[C@@H](O)[C@H]1O` the “activity change, negative = inhibition” value was inactive: -19.2%.
In the case of `Cn1c(=O)n(C)c2cc(NS(=O)(=O)c3ccc(Br)s3)ccc21`, the “activity change, negative = inhibition” value is reported as inactive: 126%.
With `COc1ccc(-c2c(C)c3ccc(O)cc3oc2=O)cc1` the Potency was inconclusive: 1.84 µM [inhibitor, full curve].
In the case of `S=c1[nH]nc(-c2ccco2)n1/N=C/C(Cl)=C/c1ccccc1`, the Potency is reported as inconclusive: 8.2 µM [inhibitor, partial curve].
For `Cc1cc(C)cc(C(=O)N2CC(=O)Nc3ccccc32)c1`, the Potency was active: 3.66 µM.
With `COc1ccc(NC(=S)N/N=C/c2ccc(F)cc2)cc1OC` the “activity change, negative = inhibition” value was inactive: -3.66%.
In the case of `Cc1ccc(-c2ccc(/C=N/NC(N)=S)o2)cc1`, the Potency is reported as inconclusive: 20.6 µM [inhibitor, partial curve, poor fit].
With `Nc1nc(Cl)nc2c1ncn2[C@@H]1O[C@H](CO)[C@@H](O)[C@H]1O` the Potency was active: 0.92 µM.
In the case of `S=C(NCc1ccc2[nH]c3c(c2c1)CCCC3)Nc1ccccc1`, the “activity change, negative = inhibition” value is reported as inactive: 37.4%.
With `COc1cc2sc(-c3ccccc3OC)c(-c3ccc(OCCN4CCOCC4)cc3)c2cc1OC` the Potency was inconclusive: 14.6 µM [inhibitor, partial curve].
For `O=c1cc(-c2cccc(F)c2)[nH]c2ccccc12`, the Potency was active: 3.66 µM.
With `CCCC1=Nc2cc(C(=O)NCCCOC(C)C)ccc2Sc2ccccc21` the Potency was active: 20.6 µM.
In the case of `CCC(NC(=O)CCc1c(C)c2cc3c4c(oc3cc2oc1=O)CCCC4)C(=O)O` (stereo not given), the Potency is reported as inconclusive: 16.4 µM [inhibitor, partial curve].
For `c1ccc(-c2cc(-c3nnc4n3N=C(c3ccc5ccccc5c3)CS4)[nH]n2)cc1`, the Potency was inconclusive: 2.59 µM [inhibitor, full curve].
With `CCOc1ccc(N(CC(=O)Nc2ccccc2C)S(=O)(=O)c2c(C)noc2C)cc1` the Potency was active: 14.6 µM.
For `Oc1[nH]c(N=C2N=c3ccccc3=N2)c2ccccc12`, the Potency was inconclusive: 16.4 µM [inhibitor, partial curve].
For `COc1ccc(OC)c(S(=O)(=O)Nc2ccc(-c3ccc4nnc(C)n4n3)cc2)c1`, the “activity change, negative = inhibition” value was inactive: 182%.
In the case of `CCN(CC)S(=O)(=O)c1ccc(N2CCOCC2)c(NC(=O)c2c3c(nc4ccccc24)CCC3)c1`, the “activity change, negative = inhibition” value is reported as inactive: 34.7%.
For `O=C(/C=C/c1ccc(O)cc1)c1ccc(O)cc1O`, the Potency was inconclusive: 1.03 µM [inhibitor, full curve].
For `Cc1ccc(S(=O)(=O)n2ccc(OC(=O)c3cccs3)n2)cc1`, the Potency was inconclusive: 29.1 µM [inhibitor, single point].
With `C#C[C@]1(O)CC[C@H]2[C@@H]3CCc4cc(O)ccc4[C@H]3CC[C@@]21C` the Potency was inconclusive: 18.4 µM [inhibitor, partial curve].
In the case of `c1ccc2c(CSc3ncnc4nc[nH]c34)cccc2c1`, the Potency is reported as inconclusive: 23.1 µM [inhibitor, partial curve, poor fit].
For `C=CCSc1nc(C)cc2c1C(=O)OC2`, the Potency was inconclusive: 16.4 µM [inhibitor, partial curve].
For `CCOC(=O)C1=C(COC(=O)/C=C/c2ccc(O)c(OC)c2)NC(=O)NC1C` (stereo not given), the Potency was inconclusive: 10.3 µM [inhibitor, partial curve].
With `COc1cc(CC(=O)OCC(=O)c2ccc3c(c2)OCCO3)cc(OC)c1OC` the Potency was inconclusive: 5.17 µM [inhibitor, full curve].
In the case of `CCOc1ccccc1NC(=O)Cn1nnc(C(=O)NCc2cccs2)c1N`, the Potency is reported as active: 2.59 µM.
With `COc1cccc(C(=O)Nc2cc(NC(=O)c3cccs3)ccc2C)c1OC` the Potency was inconclusive: 8.2 µM [inhibitor, partial curve].
With `Cc1cc(C(=O)OCC(=O)Nc2c(Cl)cccc2Cl)c(C)o1` the “activity change, negative = inhibition” value was inactive: -15.6%.
With `COc1cc(-c2noc(C)c2-c2ccc(N(C)C)nc2)cc(OC)c1OC` the Potency was active: 2.31 µM.
With `CCCc1oc2ccc(NS(=O)(=O)c3ccc(OC)cc3)cc2c1C(=O)OCC` the Potency was inconclusive: 8.2 µM [inhibitor, partial curve].
With `COc1cccc(/C=N/NC(=S)Nc2cccc(S(=O)(=O)N(C)C)c2)c1` the Potency was inconclusive: 6.51 µM [inhibitor, partial curve].
For `Cc1ccc(C)c(/C=N/NC(=S)NC(C)C)c1`, the “activity change, negative = inhibition” value was inactive: -8.95%.
